Measured values taken from PubChem BioAssay AID504444 (National Center for Advancing Translational Sciences (NCATS), 2011).
Hit rate of the full screen: of about 360,000 compounds, about 7,500 (2.1%) were called active. Inconclusive means that the source gave no clear call. Such entries were picked first, then a sample of the others. The call rests on the fitted dose curve; in most records, active means well fitted inhibition curve with a large enough effect; inconclusive means small, poorly fitted or top-dose-only effect, or effect the other way; inactive means flat fitted curve, though single readings scatter. Potencies beside an inconclusive call are fits to weak or partial responses and may not hold up.

experiment: Nrf2 qHTS screen for inhibitors; details: A549 ARE-Fluc reporter, luciferase luminescence, 18-24 h; series mostly up to 46 µM; further: nearly all actives have a fitted effect of over 60% in size
Procedure, shortened: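 A549 ARE_Fluc cells, 5000/well, 5% FBS OPTI-MEM; compounds in dose-response, 18-24 h at 37 °C/5% CO2; CellTiter-Fluor viability read (Ex 405/Em 525), then BugLite luciferase luminescence = Nrf2 activity.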
Potency means the concentration at half of the fitted maximal effect.

SMILES | Potency
O=C(c1ccc([N+](=O)[O-])cc1)N1c2ncnn2C2(CCCCC2)[C@@H]2CCCC[C@@H]21 | inactive
CC(=O)NC(=S)Nc1ccc(NC(=O)COc2ccc(Cl)cc2Cl)cc1 | inconclusive: 7.31 µM [falling, partial curve]
COc1ccccc1NC(=S)NNC(=O)c1ccncc1 | inconclusive: 29.1 µM [activator, partial curve, poor fit]
O=C1c2ccc3c4c(ccc(c24)C(=O)N1CCCCO)C(=O)N(CCCCO)C3=O | inconclusive: 9.2 µM [falling, partial curve, poor fit]
O=C(NCC(=O)N1CCN(Cc2ccccc2)CC1)c1ccc(Br)cc1 | inconclusive: 23.1 µM [falling, partial curve, poor fit]
CCCN1Cc2cccc(C(=O)Nc3ccc(C)cc3)c2C1=O | inconclusive: 8.2 µM [falling, partial curve, poor fit]
COc1ccc(CCNc2cc(C)nc3c(-c4ccccc4)cnn23)cc1OC | inconclusive: 23.1 µM [activator, partial curve]
CC(C)(C)c1ccc(C(=O)Nc2ccc(C(=O)NCc3cccnc3)cc2)cc1 | inconclusive: 25.9 µM [falling, single point]
C=CCn1c(CCNC(=O)c2cccs2)nnc1SCC(=O)c1ccc(Cl)cc1 | inconclusive: 2.59 µM [falling, full curve]
CC(C)NC(=S)N=Nc1c(O)[nH]c2ccc(C(C)C)cc12 | inconclusive: 10.3 µM [falling, partial curve, poor fit]
COc1ccc(/C=C/C(=O)Nc2cccc(S(=O)(=O)N3CCCC3)c2)cc1OC | inconclusive: 18.4 µM [falling, partial curve, poor fit]
Cc1cc(C)c(NC(=O)Cc2ccc(-n3c(C)nc4cccnc43)cc2)c(C)c1 | inconclusive: 4.61 µM [falling, full curve, poor fit]
CCOc1cc(C2C(C(=O)OC)=C(C)NC3=C2C(=O)c2ccccc23)cc(Br)c1OCC (stereo not drawn) | inconclusive: 29.1 µM [falling, single point]
CCc1c(C)nc2nc(-c3ccccc3)nn2c1NCc1ccc(C)cc1 | active: 18.4 µM
CCC(C)(C)n1nnnc1C(c1cccs1)N1CCN(c2nc3ccccc3s2)CC1 (stereo not drawn) | inconclusive: 20.6 µM [falling, single point]
CN(C)c1ccc(/C=N/n2ncc3ccccc32)cc1 | inconclusive: 0.58 µM [activator, full curve]
CCCCC(=O)NC(c1ccc(N(C)C)cc1)c1ccc2cccnc2c1O (stereo not drawn) | inconclusive: 4.61 µM [falling, full curve, poor fit]
O=C(CN1C(=O)NC(c2ccccc2)(c2ccccc2)C1=O)N1CCN(c2ccc(F)cc2)CC1 | inconclusive: 29.1 µM [falling, single point]
Cc1ccc(CN2CCN(Cc3ccc4ncccc4c3)CC2CCO)cc1 (stereo not drawn) | inconclusive: 16.4 µM [falling, partial curve, poor fit]
CC(=O)c1ccc(N2CCC(C)CC2)c(F)c1 | inconclusive: 18.4 µM [activator, partial curve, poor fit]
Cc1ccc(C2NC(=O)c3c(sc4c3CCN(C)C4)N2)s1 (stereo not drawn) | inconclusive: 25.9 µM [activator, single point]

Copied from the listing, three compounds:
SMILES | Potency
O=C(c1ccc([N+](=O)[O-])cc1)N1c2ncnn2C2(CCCCC2)[C@@H]2CCCC[C@@H]21 | inactive
CC(=O)NC(=S)Nc1ccc(NC(=O)COc2ccc(Cl)cc2Cl)cc1 | inconclusive: 7.31 µM [falling, partial curve]
COc1ccccc1NC(=S)NNC(=O)c1ccncc1 | inconclusive: 29.1 µM [activator, partial curve, poor fit]

Later entries

SMILES | Potency
Cc1cccc(N2CCN(C(=O)CN3C(=O)NC(C)(C4CC4)C3=O)CC2)c1C (stereo not drawn) | inconclusive: 0.0052 µM [falling, full curve, poor fit]
COc1ccc2c(c1)c(=O)c(C(=O)c1ccc(Cl)cc1)cn2CC(=O)Nc1ccc2c(c1)OCCO2 | inactive
Cn1c(O)c(N=Nc2ccccc2[N+](=O)[O-])c2ccccc21 | inconclusive: 29.1 µM [activator, single point]
COc1cc(/C=N/NC(=O)c2cc(-c3ccc4c(c3)OCO4)n[nH]2)ccc1O | inconclusive: 29.1 µM [falling, single point]
Cc1cc2ncn(S(=O)(=O)N3CCCCC3)c2cc1C | inconclusive: 20.6 µM [falling, partial curve, poor fit]
O=C(CSc1cn(CCNC(=O)c2c(F)cccc2F)c2ccccc12)Nc1ccccc1F | inconclusive: 6.51 µM [falling, partial curve]
C=CCN(CC=C)S(=O)(=O)c1ncn[nH]1 | inconclusive: 4.61 µM [activator, partial curve]
CCOC(=O)C1=CN(Cc2cccc(-c3cccnc3)c2)S(=O)(=O)N(CC)C1C (stereo not drawn) | inconclusive: 29.1 µM [falling, single point]
COc1ccccc1NC(=O)CSc1nc2sc(C)c(C)c2c(=O)n1Cc1ccco1 | inconclusive: 23.1 µM [falling, single point]
N=c1oc2ccccc2cc1C(=O)Nc1ccccc1 | inconclusive: 5.8 µM [activator, partial curve]
CSc1ccccc1C(=O)C1CCCN(C(=O)c2csnn2)C1 (stereo not drawn) | inconclusive: 0.13 µM [activator, full curve, poor fit]
Cc1ccc2nc(NC(=O)C3CC3C)sc2c1 (stereo not drawn) | inconclusive: 8.2 µM [activator, partial curve]
Cc1nc2cc(NCc3ccc(Cl)cc3)ccc2n1C | inconclusive: 1.3 µM [activator, full curve, poor fit]
CN(C)c1ccc(CNn2cnnc2SCc2ccc(F)cc2)cc1 | inconclusive: 29.1 µM [falling, single point]
O=C(CN1CCN(C2CCS(=O)(=O)C2)CC1)N1N=C(c2ccc(Cl)cc2)CC1c1ccco1 (stereo not drawn) | inactive
NC(=S)N/N=C1\CC(c2ccc3c(c2)OCCO3)Oc2ccc(F)cc21 (stereo not drawn) | inactive
COCCN(C(=O)c1ccc(C)c(S(=O)(=O)N2CCOCC2)c1)c1c(N)n(CC(C)C)c(=O)[nH]c1=O | inactive
COc1ccc2c(Sc3ccccc3)c(C(=O)NCc3cc(Br)ccc3OC)[nH]c2c1 | inconclusive: 25.9 µM [falling, single point]
O=C(Nc1ccc(F)cc1)Nc1csc2ccccc12 | inconclusive: 29.1 µM [falling, single point]
O=C(NCCCCc1ccccc1)c1ccc(F)cc1 | inconclusive: 29.1 µM [activator, single point]
FC(F)(F)c1ccc(/C=N/n2c(C3CCCCC3)n[nH]c2=S)cc1 | inconclusive: 20.6 µM [falling, single point]

SMILES | Potency
COc1ccc(NC(=O)COc2ccccc2Cl)cc1S(=O)(=O)N1CCCCC1 | inconclusive: 20.6 µM [falling, single point]
O=c1c([N+](=O)[O-])cc(C(F)(F)F)cn1Cc1cccc(Cl)c1 | inactive
O=C(Nc1ccc([N+](=O)[O-])cc1)c1ccccc1 | inconclusive: 5.17 µM [activator, full curve, poor fit]
O=C1CC(c2ccc(F)cc2)CC2=C1C=Nc1ccccc1N2 (stereo not drawn) | inconclusive: 29.1 µM [falling, partial curve, poor fit]
CCN(C(=O)CCc1nc(-c2ccccc2F)no1)c1cc(OC)ccc1OC | inconclusive: 29.1 µM [falling, single point]
Cc1ccc(OCC(=O)Nc2nc(-c3ccc(Br)cc3)ns2)cc1 | inconclusive: 20.6 µM [falling, single point]
CN1/C(=C\C(=O)Nc2ccc(Br)cc2)C(C)(C)c2ccccc21 | inconclusive: 29.1 µM [falling, single point]
Cc1cccc(C(=O)Nc2ccc(C(=O)/C=C/c3cccnc3)cc2)c1 | inconclusive: 32.6 µM [falling, single point]
Cc1ccc2nc(-c3c[nH]c4ccccc34)c(Nc3ccc(F)cc3)n2c1 | inactive
Cc1ccc(CNC(=O)C(C)n2c(=O)cc(-c3ccccc3)c3c(C)nn(C)c32)cc1 (stereo not drawn) | inactive
Cc1cc([N+](=O)[O-])nn1CCCC(=O)Nc1sc2c(c1C(N)=O)CCCC2 | inconclusive: 32.6 µM [falling, single point]
O=C(Cn1cnc2ccccc2c1=O)Nc1ccc2c(c1)OCO2 | inconclusive: 18.4 µM [activator, single point]
COc1ccc(Br)cc1CNC(=O)Cn1ncn2nc(-c3cccs3)cc2c1=O | inconclusive: 14.6 µM [falling, partial curve, poor fit]
CC1CCCN(c2nc(-c3cccnc3)nc3scc(-c4ccccc4)c23)C1 (stereo not drawn) | inactive
Cc1oc(-c2ccccc2Cl)nc1CSc1nncn2c1cc1occc12 | inconclusive: 13 µM [activator, partial curve, poor fit]
COc1ccccc1N1CCN(C(=O)c2ccc3c(c2)CCN3S(=O)(=O)c2ccccc2)CC1 | inconclusive: 25.9 µM [falling, partial curve, poor fit]
CCN(CC)CC(=O)Nc1sc2c(c1C(=O)c1ccccc1OC)CCC2 | inconclusive: 32.6 µM [falling, single point]
CC(C)(C)c1ccc(C(=O)NC(=S)NCc2ccco2)cc1 | inactive
O=C(CN(C1CC1)S(=O)(=O)c1ccc(S(=O)(=O)NC2CCCCC2)cc1)Nc1ccccc1 | inconclusive: 14.6 µM [falling, partial curve, poor fit]
O=C(NCc1ccc2[nH]c3c(c2c1)CCCC3)c1ccc(S(=O)(=O)N2CCOCC2)cc1 | inconclusive: 16.4 µM [falling, partial curve, poor fit]
Cc1cc(CNC(=O)c2cccc([N+](=O)[O-])c2C)c2ccccc2n1 | inconclusive: 25.9 µM [falling, single point]

Two entries from above, reformatted.
O=C1CC(c2ccc(F)cc2)CC2=C1C=Nc1ccccc1N2 (stereo not drawn)
  Potency: inconclusive: 29.1 µM [falling, partial curve, poor fit]
Cc1ccc(CNC(=O)C(C)n2c(=O)cc(-c3ccccc3)c3c(C)nn(C)c32)cc1 (stereo not drawn)
  Potency: inactive
